{"source": "PubChem BioAssay AID504842", "about": "(National Center for Advancing Translational Sciences (NCATS), 2011)", "note": "Among all 330,000 compounds or so, about 100 (0.03%) were called active. The shares of active, inactive and inconclusive entries below differ from those in the screen. Calls come from the whole dose curve; as a rule, active = well fitted inhibition curve with a large enough effect; inconclusive = small, poorly fitted or top-dose-only effect; inactive = flat fitted curve, though single readings scatter. Potencies of inconclusive entries are doubtful fits and often do not repeat. Potency is the fitted concentration of half-maximal effect.", "data": [{"tested_on": "Chaperonin Mm-Cpn (Methanococcus maripaludis)", "assay": "Inhibitors of TCP-1 ring complex (TRiC) of Methanococcus maripaludis (MmCpn): qHTS; note: nearly all actives have a fitted effect of over 80% in size;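 for Potency: enzyme at 25 nM with ATP substrate at 10 µM during the reaction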", "details": "purified Mm-Cpn ATPase, ADP Transcreener TR-FRET; series mostly up to 76.9 µM", "source_text": "The eukaryotic chaperonin TRiC (for TCP-1 ring complex) is an essential and conserved chaperone required for the folding and activation of 10-15% of the proteins encoded by the human genome. […] The TRiC complex consist of two stacked 7-9 membered rings, each containing a central cavity. Substrates are folded within the cavity in an ATP-dependent manner. TRiC is a complex of eight different, essential proteins. As each of the genes encoding the eight subunits is essential for cell viability and no protocol has been developed to over-express this enzyme to high levels. That is why several groups studying the TRiC chaperonin have turned to the archaeal homolog of TRiC, Methanococcus maripaludis (Mm-CPN), and have used this enzyme as a model system for the study of the type II chaperonin family. Small molecule inhibitors of the Mm-CPN enzyme would be extremely useful to study the mechanism of chaperonin activity. Importantly, TRiC and Mm-CPN both require ATP hydrolysis for function. Furthermore, the ATP binding sites are highly conserved among these type II chaperonins. This provides us with an easy, well tested and straightforward assay to identify inhibitors of chaperonin activity. The Mm-CPN assay was developed in 1536-well plate format using the HTRF Transcreener ADP assay kit (Cisbio, Bedford, MA). This assay applied the time resolved fluorescence resonance energy transfer (TR-FRET) principle. ATP in the presence of Mm-CPN is converted to ADP + Pi. An antibody labeled with Eu3+-Cryptate specific and bound to ADP labeled with […] (d2) competes with the unlabeled ADP generated by Mm-CPN. The resulting TR-FRET signal is inversely proportional to the concentration of ADP in the sample. In this assay a reduction in TR-FRET signal is observed with ATP turnover. NIH Chemical Genomics Center [NCGC] NIH Molecular Libraries Probe Centers Network [MLPCN] MLPCN Grant: DA030554-01A1 Assay Submitter (PI): Judith Frydman, Stanford University\nPurified Mm-CPN was supplied by the laboratory of Dr. Judith Frydman. Protein samples were stored at -80C as single use aliquots. Protein was thawed in ambient temperature water bath and placed on ice once thawed. Buffer was prepared fresh day of screen. The buffer composition below was used to prepare the working solution of the Mm-CPN protein and ATP substrate. The buffer is comprised of 30 mM TRIS pH 7.4, 100mM KCl, 5mM MgCl2, and 1mM DTT. A final concentration of 25nM Mm-CPN and 10uM ATP per well were used in the screen. Instructions according to the manufacturer were followed for the ADP Transcreener kit. Used 1536 well Greiner white, medium binding (MB), solid bottom plates. Plates were read on the PerkinElmer EnVision plate reader using Excitation = 320 nm and Emission = […], 665 nm. Protocol- 1.Dispense 1.5ul per well of working [Mm-CPN] = 50nM (or 75 ng / well) 2.Spin plate at 1000 rpm for 30 seconds 3.23nl of compound transferred per well 4.Incubate at 37degC for 10 minutes 5.Dispense 1.5ul per well of working [ATP] = 20uM 6.Incubate at 37degC for 30 minutes 7.Dispense 3ul per well of Anti-ADP Cryptate / ADP-d2 mix (prepared as instructed by Cisbio) 8.Incubate at ambient for 30 minutes 9.Read using EnVision", "values": [{"smiles": "O=C(Nc1ccc2nc3n(c(=O)c2c1)CCCCC3)c1ccccc1Cl", "Potency": "inconclusive: 20 µM [inhibitor, single point]"}, {"smiles": "CCOC(=O)c1sc(=NC(=O)c2ccc(C)cc2)n(C)c1C", "Potency": "inconclusive: 112 µM [inhibitor, partial curve, poor fit]"}, {"smiles": "COc1cc([N+](=O)[O-])ccc1-c1ccc(C(=O)Nc2ccc(NC(C)=O)cc2)o1", "Potency": "inactive"}, {"smiles": "COc1ccc(C)cc1NC(=O)c1sc2ncnc(N3CCN(c4ccccn4)CC3)c2c1C", "Potency": "inactive"}, {"smiles": "c1ccc2c(-c3csc(-c4ccncc4)n3)c[nH]c2c1", "Potency": "inconclusive: 22.4 µM [inhibitor, partial curve, poor fit]"}, {"smiles": "O=C(Nc1ccc2ccccc2c1)c1cn(-c2ccccc2)nc1-c1cccs1", "Potency": "inconclusive: 100 µM [inhibitor, partial curve, poor fit]"}, {"smiles": "Cc1c(Br)c([N+](=O)[O-])nn1CC(=O)N1CCc2ccccc2C1", "Potency": "inconclusive: 22.4 µM [inhibitor, single point]"}, {"smiles": "N#Cc1ccc2c(c1)nc1ccccn12", "Potency": "inconclusive: 100 µM [inhibitor, single point]"}, {"smiles": "O=C(/C=C/c1cccs1)Nc1scc(-c2ccccc2)c1C(=O)O", "Potency": "inconclusive: 25.1 µM [inhibitor, single point]"}, {"smiles": "O=C(CCN1C(=O)/C(=C/c2ccc(Cl)cc2)SC1=S)Nc1cccc(C(=O)O)c1", "Potency": "inconclusive: 79.4 µM [inhibitor, single point]"}, {"smiles": "COc1ccc(NC(=O)CN(C)C(=O)/C=C/c2ccc(OCc3ccccc3)cc2)cc1", "Potency": "inactive"}, {"smiles": "CCOC(=O)Cn1c(=NC(=O)c2cc(-c3cccs3)nc3ccccc23)sc2cc(S(N)(=O)=O)ccc21", "Potency": "inconclusive: 126 µM [inhibitor, partial curve]"}, {"smiles": "O=[N+]([O-])c1cc2c(cc1/C=N/n1c(-c3ccccn3)n[nH]c1=S)OCO2", "Potency": "inactive"}, {"smiles": "COC(=O)c1cc(-c2cccs2)[nH]n1", "Potency": "inconclusive: 17.8 µM [inhibitor, single point]"}, {"smiles": "CCOc1ccc(CCNC(=O)CSc2cc(=O)n(CC)c3ccccc23)cc1OCC", "Potency": "inactive"}, {"smiles": "Cc1ccc(NC(=O)CCCc2ccccc2)nc1", "Potency": "inconclusive: 70.8 µM [inhibitor, partial curve, poor fit]"}, {"smiles": "CN(CCc1ccccc1)C1CCCN(S(=O)(=O)CC(F)(F)F)C1", "note": "(stereo unspecified)", "Potency": "inconclusive: 63.1 µM [inhibitor, single point]"}, {"smiles": "O=C(COc1cccnc1[N+](=O)[O-])Nc1ncc(Cl)cc1Cl", "Potency": "inactive"}, {"smiles": "O=c1cc(CSc2nnnn2-c2ccccc2)nc2scc(-c3ccccc3)n12", "Potency": "inconclusive: 100 µM [inhibitor, single point]"}, {"smiles": "COc1ccc(C(=O)OCC(=O)Nc2sccc2C(N)=O)cc1OC", "Potency": "inconclusive: 100 µM [inhibitor, partial curve, poor fit]"}, {"smiles": "Nc1ccc2oc(-c3ccccc3Cl)nc2c1", "Potency": "inactive"}, {"smiles": "O=C(COC(=O)c1ccc(Cl)c(S(=O)(=O)N2CCc3ccccc3C2)c1)Nc1ncc(Cl)cc1Cl", "Potency": "inconclusive: 100 µM [inhibitor, single point]"}, {"smiles": "CN(C)CCCn1c(SCC(=O)N2c3ccccc3Sc3ccccc32)nc2ccccc2c1=O", "Potency": "inconclusive: 25.1 µM [inhibitor, single point]"}, {"smiles": "NCCCC(N)(C(=O)O)C(F)F", "note": "(stereo unspecified)", "Potency": "inconclusive: 15.8 µM [inhibitor, single point]"}, {"smiles": "O=S(=O)(Nc1ccc2ccccc2n1)c1ccccc1", "Potency": "inconclusive: 44.7 µM [inhibitor, partial curve, poor fit]"}, {"smiles": "Cc1cccc(OCc2nnc(NC(=O)c3cccs3)s2)c1", "Potency": "inconclusive: 12.6 µM [inhibitor, single point]"}, {"smiles": "COc1cc(/C=C2\\COC/C(=C\\c3ccc(O)c(OC)c3)C2=O)ccc1O", "Potency": "inactive"}, {"smiles": "Cc1ccc(S(=O)(=O)N2CCN(S(C)(=O)=O)C2)cc1", "Potency": "inactive"}, {"smiles": "O=C(COC(=O)C1CCN(c2ccc(C(F)(F)F)cn2)CC1)c1ccccc1Cl", "Potency": "inconclusive: 56.2 µM [inhibitor, single point]"}, {"smiles": "CCOC(=O)C(C(=O)OCC)N(C#N)c1nc(N(C)C)nc(N(C)C)n1", "Potency": "inconclusive: 8.91 µM [inhibitor, single point]"}, {"smiles": "COc1ccc(-c2csc(NC(=O)c3ccc(N4C(=O)CCC4=O)cc3)n2)cc1OC", "Potency": "inconclusive: 89.1 µM [inhibitor, single point]"}, {"smiles": "COc1ccc2oc(=O)c(-c3csc(Nc4cccc(O)c4)n3)cc2c1", "Potency": "inactive"}, {"smiles": "COc1ccc2sc(-c3ccccc3OC)c(C#Cc3cncn3C)c2c1", "Potency": "inconclusive: 79.4 µM [inhibitor, partial curve, poor fit]"}, {"smiles": "CC(=O)c1ccc(NC(=O)CN2CCOCC2)cc1", "Potency": "inactive"}, {"smiles": "CCOc1ccc(C(=O)CCC(=O)N(CC)CC(=O)NCc2cccs2)cc1", "Potency": "inactive"}, {"smiles": "O=C(COc1ccc(Cl)cc1)Nc1ccc(Cc2ccncc2)cc1", "Potency": "inactive"}, {"smiles": "COc1cccc2cc(C(=O)C3=C(O)C(=O)N(c4cc(C)on4)C3c3cccs3)oc12", "note": "(stereo unspecified)", "Potency": "inconclusive: 11.2 µM [inhibitor, single point]"}, {"smiles": "Cc1ccc(-n2c(C)cc(C(=O)CSc3nncs3)c2C)cc1", "Potency": "inconclusive: 17.8 µM [inhibitor, single point]"}, {"smiles": "COc1ccc(CCC(=O)Nc2cc(Cl)ccc2N2CCN(C)CC2)cc1", "Potency": "inactive"}, {"smiles": "COc1ccc(NC(=S)N(CCN(C)C)C(C)c2ccco2)cc1Cl", "note": "(stereo unspecified)", "Potency": "inactive"}, {"smiles": "Cc1ccc(-c2cc(C(=O)N3CCCCC3)c3ccccc3n2)cc1C", "Potency": "inconclusive: 12.6 µM [inhibitor, single point]"}, {"smiles": "CCCOc1ccc(C(=O)NNC(=S)NC(=O)c2ccccc2)cc1", "Potency": "inactive"}, {"smiles": "COc1ccc(-c2csc(N(CCc3ccc(OC)c(OC)c3)C(=O)COc3ccccc3)n2)cc1", "Potency": "inconclusive: 282 µM [inhibitor, partial curve, poor fit]"}, {"smiles": "CCSc1nnc2c(n1)OC1(CCCC1)Nc1ccccc1-2", "Potency": "inactive"}, {"smiles": "Cc1sc(NC(=O)c2ccco2)c(C(c2cccnc2)N2CCC(C)CC2)c1C", "note": "(stereo unspecified)", "Potency": "inactive"}, {"smiles": "O=C(CS(=O)(=O)Cc1ccccc1)N1CCN(c2cccc(C(F)(F)F)c2)CC1", "Potency": "inactive"}]}]}
